Values from PubChem BioAssay AID493246 (Drosophila RNAi Screening Center, 2011)
In all, the deposit lists about 21,000 reagents; below is a random part of those with a known target gene and a result. Over the whole deposit, 429 (2%) are marked active. 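Values are raw and not normalised between plates; calls rest on per-plate z-scores that were not deposited.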 Entries without a mark were called inactive. Names joined by + are all predicted targets of the reagent. The record does not give: the amount of reagent, the time to read-out.

Screen: 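Genome-wide search for dsRNAs that reduce cell number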 (primary screen)
System: Drosophila Kc and S2R+ cells
Reagent: long dsRNA against Drosophila genes
Measured: 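Raw, unnormalised count of remaining cells in each well; per-plate z-scores of cell number underlie the calls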
Reading the numbers: Kc cell number and S2R+ cell number: higher = more cells remaining
Rule for the call: 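Counted as a hit if cell number falls by a z-score of at least 3 within its plate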

gene knocked down	dsRNA	Kc cell number, rep 1	Kc cell number, rep 2	S2R+ cell number, rep 1	S2R+ cell number, rep 2
CG8292	DRSC03082	1.56e6	1.63e6	1.14e6	1.29e6
Daao2 (D-amino acid oxidase 2)	DRSC02135	1.21e6	1.32e6	5.60e5	7.86e5
CAHbeta (Carbonic anhydrase beta)	DRSC14449	1.46e6	1.57e6	1.21e6	1.25e6
CG17048	DRSC06649	1.68e6	1.76e6	1.17e6	1.36e6
CG42539 (retired record)	DRSC13691	1.09e6	1.46e6	1.14e6	1.16e6
Ptp4E (Protein tyrosine phosphatase 4E)	DRSC18701	5.88e5		9.10e5	
Ir100a (Ionotropic receptor 100a)	DRSC14329	1.50e6	1.48e6	1.03e6	1.13e6
Tmep (Transmembrane endosomal protein)	DRSC08215	1.31e6	1.39e6	1.01e6	1.06e6
CG16723	DRSC15138	1.73e6	1.60e6	9.88e5	1.12e6
Pgant8 (Polypeptide N-Acetylgalactosaminyltransferase 8)	DRSC10801	1.35e6	1.46e6	1.33e6	1.43e6
c(3)G (crossover suppressor on 3 of Gowen)	DRSC15245	1.58e6	1.72e6	1.15e6	1.32e6
CG13872	DRSC06431	1.53e6	1.60e6	1.19e6	1.30e6
CG8195	DRSC07103	1.33e6	1.42e6	1.19e6	1.15e6
CNMa (CNMamide)	DRSC08405	1.46e6	1.41e6	1.07e6	1.32e6
CG3987	DRSC15531	1.56e6	1.63e6	1.40e6	1.44e6
Gyc89Da (Guanylyl cyclase at 89Da)	DRSC15008	1.55e6	1.55e6	1.06e6	9.90e5
Polr1E (RNA polymerase I subunit E)	DRSC14506	1.28e6	1.27e6	1.03e6	1.10e6
Polr1E (RNA polymerase I subunit E)	DRSC15358	1.60e6	1.64e6	1.23e6	1.28e6
Fatp3 (Fatty acid transport protein 3)	DRSC04366	1.43e6	1.54e6	1.28e6	1.27e6
sog (short gastrulation)	DRSC20379	1.38e6	1.49e6	9.45e5	1.03e6
CG11585	DRSC19410	1.55e6	1.51e6	1.06e6	1.14e6
CG32772	DRSC18052	8.52e5 (active)	7.01e5	5.48e5	6.31e5
CG32772	DRSC18406	5.67e5		7.39e5	
Corin	DRSC06818	1.63e6	1.73e6	1.30e6	1.44e6
CG4374	DRSC15570	1.48e6	1.71e6	1.12e6	1.19e6
Polr3H (RNA polymerase III subunit H)	DRSC10817	1.52e6	1.61e6	1.28e6	1.43e6
CG4133	DRSC00639	1.46e6	1.52e6	8.92e5	1.02e6
tmod (tropomodulin)	DRSC13993	1.51e6	1.67e6	1.05e6	1.13e6
tmod (tropomodulin)	DRSC14314	1.51e6	1.60e6	9.69e5	1.08e6
tmod (tropomodulin)	DRSC15076	1.61e6	1.60e6	1.02e6	1.09e6
tmod (tropomodulin)	DRSC17062	5.39e5		9.15e5	
CG13623	DRSC14625	1.52e6	1.66e6	7.04e5	8.48e5
CG18368	DRSC06731	1.64e6	1.64e6	1.38e6	1.41e6
CG42404	DRSC15558	1.41e6	1.46e6	1.17e6	1.29e6
CG7058	DRSC20021	1.50e6	1.51e6	1.02e6	1.12e6
CG17140 + CG17139	DRSC02585	1.58e6	1.68e6	1.34e6	1.47e6
CG17140 + CG17139	DRSC02586	1.53e6	1.64e6	1.32e6	1.39e6
CG33170	DRSC11854	1.55e6	1.67e6	1.33e6	1.48e6
MFS3 (Major Facilitator Superfamily Transporter 3)	DRSC00664	1.49e6	1.51e6	1.05e6	1.19e6
CG13531	DRSC04173	1.70e6	1.82e6	1.29e6	1.34e6
Tlk (Tousled-like kinase)	DRSC17731	1.20e6	1.28e6	7.41e5	8.68e5
Tlk (Tousled-like kinase)	DRSC17835	1.07e6	1.20e6	6.35e5	7.62e5
CrebB (Cyclic-AMP response element binding protein B)	DRSC20232	1.55e6	1.56e6	1.07e6	1.14e6
CG11475	DRSC04113	1.31e6	1.38e6	1.01e6	1.03e6
Su(var)3-3 (Suppressor of variegation 3-3)	DRSC10250	1.44e6	1.45e6	1.18e6	1.23e6
PPO3 (Prophenoloxidase 3)	DRSC04325	1.32e6	1.39e6	1.11e6	1.20e6
mib1 (mind bomb 1)	DRSC10550	1.25e6	1.43e6	1.37e6	1.49e6
CG14418	DRSC18637	1.67e6	1.70e6	8.90e5	1.06e6
CG17739	DRSC06689	1.34e6	1.45e6	1.14e6	1.21e6
brv1 (brivido-1)	DRSC11076	1.40e6	1.42e6	1.22e6	1.33e6
Kul (Kuzbanian-like)	DRSC15404	1.40e6	1.42e6	9.83e5	1.06e6
ohgt (ohgata)	DRSC15521	1.71e6	1.70e6	1.36e6	1.53e6
CG1628	DRSC18109	5.92e5		8.45e5	
CG1213	DRSC12191	1.60e6	1.89e6	1.27e6	1.39e6
drongo	DRSC00814	1.35e6	1.35e6	9.62e5	1.10e6
trio	DRSC07928	1.51e6	1.44e6	9.97e5	1.15e6
trio	DRSC08527	1.10e6	1.18e6	7.24e5	7.68e5
trio	DRSC08740	1.60e6	1.37e6	9.80e5	1.40e6
AspRS (Aspartyl-tRNA synthetase)	DRSC05914	1.42e6	1.43e6	1.26e6	1.32e6

Limited to “Kc cell number, rep 1” (4 entries from above):
CG17739 [DRSC06689]: 1.34e6
brv1 (brivido-1) [DRSC11076]: 1.40e6
Kul (Kuzbanian-like) [DRSC15404]: 1.40e6
ohgt (ohgata) [DRSC15521]: 1.71e6
